For part of these data: Part of at least one peptide drawing is inferred or uncertain, most often the ends. Some results were stated once for a whole list of compounds, not compound by compound. Some ranges recur; such a range may be that of the whole group of compounds. Where no end group is shown, it is not given here.
What was measured:
Format in all cases: cell-based
[1] = test system: H1299 cells stably transfected with Mut-p53 (ts) A135V; assay: qRT-PCR of p53 target genes (p21, PUMA, Mdm2); conditions: 5 ug/ml, 18 hours, 37° C., relative to non-treated cells; positive control (32° C.) 9-11 fold
Method: H1299 cells are p53 null and are widely used for p53 research. H1299 cells stably transfected with Mut-p53 (ts) A135V were used. […] 18 hours later cells were harvested, followed by extraction of RNA, cDNA synthesis and real time PCR analysis. The expression level of 3 representative p53 target genes, p21, PUMA and Mdm2, was examined.
For the in vivo functional screening, several experimental systems were used. One system is based on H1299 cells, which are p53 null and are widely used for p53 research. H1299 cells stably transfected with Mut-p53 (ts) A135V were used. This form of p53 is a temperature sensitive mutant, which has a mutant conformation at 37° C. and a WT conformation at 32° C. […] 18 hours later cells were harvested, followed by extraction of RNA, cDNA synthesis and real time PCR analysis. The expression level of 3 representative p53 target genes was examined; p21, PUMA and Mdm2. Expression of genes in H1299-ts at 37° C. is considered as background level and all results are normalized to it, and also to the GAPDH housekeeping gene. Expression of genes in H1299-ts at 32° C. represents WT p53 conformation and therefore serves as a positive control.
Several tested peptides indeed caused a significant increase in the expression of p21, PUMA and Mdm2. This was the case for pCAP-130, pCAP-135, pCAP-142, pCAP-144 and pCAP-148. These peptides induced transcription of target genes by 2-4 fold, compared to 9-11 fold of the positive control, authentic wild type p53. The fact that treatment with peptides induced all three genes but had no effect on expression of these genes in control H1299 (p53^−/−) cells implies that this induction is p53 dependent.

[2] = test system: ES2 ovarian carcinoma cells (Mut-p53, position 241); assay: qRT-PCR of p53 target genes (p21, PUMA, CD95, Btg-2); conditions: 12 ug/ml
Method: FIGS. 17A, 17B, 17C and 17D illustrate representative experiments performed on ES2 ovarian carcinoma cells expressing Mut-p53 mutated at position 241 within the DBD. […] Cells were harvested and an apoptosis assay (FIGS. 17A and 17B) was performed using the Annexin-V staining kit (Roche, REF 11 988 549 001). Non-fixed cells were stained with both anti Annexin FITC conjugated antibody to detect apoptotic cells, and PI (propidium iodide) to stain dead cells, according to the manufacturer's instructions. Stained cells were then analyzed by flow cytometry. A total of 10,000 cells was counted for each sample and divided into four sub populations according to staining intensity; cells negative for both PI and Annexin (−PI, −Annexin) are termed live; cells negative for PI and positive for Annexin (−PI, +Annexin) are going through early stages of apoptosis; cells positive for PI and Annexin (+PI, +Annexin) are dead cells that underwent an apoptotic process; and cells positive for PI and negative for Annexin (+PI, −Annexin) are assumed as dead cells that died by a non-apoptotic process such as necrosis.
FIGS. 17A and 17B illustrate a representative experiments performed on ES2 ovarian carcinoma cells (FIGS. 17A-D) expressing Mut-p53 with a mutation at positions 241 within the DBD. […] Stained cells were then analyzed by flow cytometry. […]

[3] = test system: Mut-p53-expressing human cancer cell lines; assay: Crystal violet viability assay on further cell lines; conditions: cell line not stated
Method: Cells were cultured in 96 wells plates with 2500-4000 cells/well in 0.1 ml and incubated overnight at 37° C. in order to adhere to the plate. Serial dilutions of different peptides (0.5 μg/ml) were added in 0.1 ml aliquots and the plates incubated for additional 48 h at 37° C. Then medium was removed and cell lysis was determined by staining the cells with crystal violet (0.5%) in methanol/water (1:4, v/v), 50 μl each well, for 10 min, followed by 3 washes with PBS. Afterwards, 10% acetic acid (50 μl) was added to each well and shaken for 10 min. Then, automatic plate reading was performed at 595 nm.
An important indication for the reactivating peptides activity is their effect in-vivo on cancer cells that express Mut-p53. In particular, reactivating peptides that can cause specifically Mut-p53-dependent death of cancer cells, with minimal toxic effects on normal cells are desired. A crystal-violet based viability assay, in which crystal-violet is employed to stain cells that adhere to the plate and therefore the amount of dye is proportional to cell number was used to determine the effect of the various test peptides on Mut-p53-dependent death.
Cells were plated in 96-well plates, at calibrated density that allows them to grow for 48 hours without reaching confluence. Peptides are added 6 hours later. […]

Substance	induction of transcription of p53 target genes p21, PUMA and Mdm2 [1]	further results
HTDSHPHHHHPHRRRRR [pCAP-135]	2-4 fold	–
myr-RRLIVRILKLPNPPER (N-terminal myristoyl; LIPID (1)..(1) … group attached) [pCAP-242]	–	CD95 and Btg-2 expression elevation over non-treated cells [2]: up to 6 fold; p21 and PUMA mRNA expression increase over time ([2]; over non-treated cells): up to 6 fold
YRRLLIGMMW [pCAP-25]	–	effect on cell viability [3]: no effect on p53 activity
EVTFRHSVVRRRRRRRRRRR [pCAP-130]	2-4 fold	–
TLYLPHWHRHRRRRRRRRRR [pCAP-142]	2-4 fold	–

Source: patent publication US11028127B2, “Peptides capable of reactivating p53 mutants” (Yeda Research and Development Co. Ltd., priority 2013, dated 2021)
